Values from PubChem BioAssay AID504764 (Drosophila RNAi Screening Center, 2011).

Purpose: 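Knock-downs that raise or lower a Notch target reporter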 (primary screen)
Cells: Drosophila Kc167 cells
Reagent: long dsRNA against Drosophila genes
Time to read-out: about 5 days (4 days dsRNA, then 24 h after transfection)
Challenge: transfection of constitutively active membrane-tethered Notch lacking the extracellular domain, read 24 h later
Measurement: 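Light from a Notch-responsive E(spl)m3 luciferase reporter under active Notch, with control-promoter and no-Notch reporter wells to normalise; raw counts from paired wells a and b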
Direction: induced reporter light, run 1, well a and induced reporter light, run 1, well b: higher = more light from the Notch target reporter with active Notch; control promoter light, run 1, well a and control promoter light, run 1, well b: higher = more light from the viral control promoter (cell number, transfection, viability); uninduced reporter light, run 1, well a: higher = more light from the Notch target reporter without active Notch
Rule for the call: 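Hit if the duplicate-averaged log2 ratio of induced to control-promoter light gives a plate-wise z beyond ±2, or induced to uninduced beyond ±1.8; weak-control or discordant-duplicate wells dropped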
Meaning of the calls: active = modifier hit (raised or lowered Notch signal); inactive = not a hit
In all, the deposit lists about 22,000 reagents; this is an unselected part of those that have a named target and a result. Of all reagents, 403 (1.9%) got an active call. 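Unnormalised raw counts per well; ratio z-scores behind the hit calls and whether each hit raises or lowers signal are not deposited.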 The numbers tell different reagents against one gene apart. A plus sign joins genes that one reagent is predicted to hit. No sequences are given here. Not stated in the record: the amount of reagent.

no.	gene	reagent	induced reporter light, run 1, well a	induced reporter light, run 1, well b	control promoter light, run 1, well a	control promoter light, run 1, well b	uninduced reporter light, run 1, well a	Call
1	MagR	1	73960	69120	79770	77500	10585	inactive
2	CG6034	1	1.74e5	1.44e5	2.34e5	1.84e5	6280	inactive
3	SpdS	1	77165	66530	66410	61065	6815	inactive
4	CheA87a	1	2.31e5	2.35e5	2.17e5	1.80e5	18655	inactive
5	Gdap2	1	2.19e5	2.18e5	2.59e5	2.68e5	21145	inactive
6	Gdap2	2	2.13e5	1.91e5	2.24e5	2.42e5	17600	inactive
7	ppk27	1	83855	85180	1.81e5	1.30e5	4565	inactive
8	MED23 + CG3700	1	1.39e5	1.25e5	1.13e5	1.14e5	11865	inactive
9	MED23 + CG3700	2	1.86e5	1.92e5	1.46e5	1.59e5	14750	inactive
10	CG10139	1	1.64e5	1.80e5	1.79e5	1.62e5	14995	inactive
11	CG9986	1	1.63e5	1.58e5	2.25e5	2.07e5	12045	inactive
12	CG2962	1	1.46e5	1.74e5	2.02e5	2.02e5	12015	inactive
13	Cc2d2a	1	31165	33015	41285	37730	6425	inactive
14	CG4049	1	1.89e5	1.65e5	1.30e5	1.35e5	12765	inactive
15	Vm26Aa	1	49705	41675	43620	34805	3610	inactive
16	CG7546	1	2.01e5	1.74e5	1.82e5	2.13e5	14828	inactive
17	CG7546	2	1.15e5	1.40e5	90630	43350	13445	inactive
18	CG9813	1	1.08e5	1.02e5	94715	80920	9020	inactive
19	srw	1	56495	75055	1.20e5	73180	11200	inactive
20	RpS19a	1	14295	13620	16130	17525	1175	inactive
21	CG6900 (retired record)	1	94330	85525	1.05e5	1.16e5	10515	inactive
22	TBPH	1	1.48e5	1.49e5	1.27e5	1.48e5	13925	inactive

The list goes on (5 carried over from the part before).
no.	gene	reagent	induced reporter light, run 1, well a	induced reporter light, run 1, well b	control promoter light, run 1, well a	control promoter light, run 1, well b	uninduced reporter light, run 1, well a	Call
18	CG9813	1	1.08e5	1.02e5	94715	80920	9020	inactive
19	srw	1	56495	75055	1.20e5	73180	11200	inactive
20	RpS19a	1	14295	13620	16130	17525	1175	inactive
21	CG6900 (retired record)	1	94330	85525	1.05e5	1.16e5	10515	inactive
22	TBPH	1	1.48e5	1.49e5	1.27e5	1.48e5	13925	inactive
23	CG14275	1	1.46e5	1.64e5	75675	1.15e5	21530	inactive
24	CG42340	1	83885	72205	80355	67545	6028	active
25	CG42340	2	1.38e5	1.26e5	2.35e5	2.68e5	9305	inactive
26	CG42340	3	1.40e5	1.58e5	2.71e5	2.76e5	9295	inactive
27	CG42340	4						inactive
28	Ada	1	22015	27680	28360	31785	1905	inactive
29	cathD	1	2.20e5	2.59e5	3.12e5	2.70e5	22820	inactive
30	slif	1	1.12e5	94090	80640	98460	8828	inactive
31	PNPase	1	1.92e5	1.81e5	2.66e5	3.07e5	15185	inactive
32	BuGZ	1	1.56e5	1.81e5	70500	82715	10055	active
33	BuGZ	2	1.36e5	1.47e5	1.32e5	1.44e5	9975	inactive
34	tim	1	1.88e5	1.62e5	1.90e5	1.90e5	14605	inactive
35	Grx1	1	1.49e5	1.15e5	2.04e5	2.82e5	6010	active
36	CG14564	1	1.40e5	1.34e5	92705	88925	10820	inactive
37	CG7920	1	1.57e5	1.78e5	2.24e5	2.02e5	11590	inactive
38	CG30031 + deltaTry + CG30025 + 1 more	1	99800	1.10e5	1.10e5	1.44e5	8810	inactive
39	CG30283	1	73240	53690	46710	67740	2445	inactive
40	CG18536	1	50960	41155	43820	72105	6355	inactive
41	CG11588	1	1.58e5	1.78e5	2.00e5	1.83e5	14665	inactive
42	CG11588	2	1.57e5	1.58e5	2.01e5	1.62e5	6815	inactive
43	CG12917	1	2.35e5	1.99e5	2.33e5	2.73e5	16000	inactive
44	Slob (retired record)	1	1.86e5	1.59e5	1.72e5	1.72e5	18160	inactive
45	CG7763	1	1.14e5	1.12e5	1.20e5	1.24e5	9628	inactive
46	CG42560 + CG42559	1						active
47	CG10345	1	1.55e5	1.45e5	1.64e5	1.77e5	12370	inactive
48	CG14759	1	2.11e5	2.24e5	2.40e5	2.87e5	20120	inactive
49	CG42784	1	2.69e5	2.52e5	2.00e5	2.20e5	16940	inactive
50	CG42784	2	17105	17970	16920	15188	4005	inactive
51	CG11686	1	3.09e5	2.97e5	2.65e5	2.35e5	20300	inactive
52	dare	1	1.14e5	1.11e5	1.36e5	1.04e5	10730	inactive
53	Prp40	1	99410	1.20e5	1.17e5	1.34e5	11590	inactive
54	ASPP	1	8490	9265	10700	9915	1750	inactive
55	Cyp308a1	1	1.05e5	1.02e5	1.24e5	1.34e5	11905	inactive
56	CG5721	1	97130	1.04e5	2.13e5	2.11e5	7035	inactive
57	IntS2	1	1.17e5	81680	65650	23800	12885	inactive
58	ec	1	61770	66505	1.01e5	1.07e5	6295	inactive
59	ec	2	66790	78250	77605	76260	7165	inactive
60	ec	3	1.76e5	1.80e5	4.03e5	2.89e5	14510	inactive
61	CG31327	1	1.11e5	1.11e5	1.37e5	1.07e5	8775	inactive
62	Cdc45	1	1.66e5	1.97e5	1.95e5	1.77e5	14780	inactive
63	Cdc45	2	1.25e5	1.30e5	2.57e5	2.26e5	9350	inactive
64	SuUR	1	1.55e5	1.21e5	1.59e5	1.77e5	6332	inactive
